From paper PMC9514642
Results are given in words; binding and its absence hold for the method and conditions named. Binding seen in cells or lysates may run through a third protein. Some results given as binding are weak or reduced against the parent protein; the word gives no strength.

Amino acid sequences for entries named in this document (tags omitted).
UniProt P35579: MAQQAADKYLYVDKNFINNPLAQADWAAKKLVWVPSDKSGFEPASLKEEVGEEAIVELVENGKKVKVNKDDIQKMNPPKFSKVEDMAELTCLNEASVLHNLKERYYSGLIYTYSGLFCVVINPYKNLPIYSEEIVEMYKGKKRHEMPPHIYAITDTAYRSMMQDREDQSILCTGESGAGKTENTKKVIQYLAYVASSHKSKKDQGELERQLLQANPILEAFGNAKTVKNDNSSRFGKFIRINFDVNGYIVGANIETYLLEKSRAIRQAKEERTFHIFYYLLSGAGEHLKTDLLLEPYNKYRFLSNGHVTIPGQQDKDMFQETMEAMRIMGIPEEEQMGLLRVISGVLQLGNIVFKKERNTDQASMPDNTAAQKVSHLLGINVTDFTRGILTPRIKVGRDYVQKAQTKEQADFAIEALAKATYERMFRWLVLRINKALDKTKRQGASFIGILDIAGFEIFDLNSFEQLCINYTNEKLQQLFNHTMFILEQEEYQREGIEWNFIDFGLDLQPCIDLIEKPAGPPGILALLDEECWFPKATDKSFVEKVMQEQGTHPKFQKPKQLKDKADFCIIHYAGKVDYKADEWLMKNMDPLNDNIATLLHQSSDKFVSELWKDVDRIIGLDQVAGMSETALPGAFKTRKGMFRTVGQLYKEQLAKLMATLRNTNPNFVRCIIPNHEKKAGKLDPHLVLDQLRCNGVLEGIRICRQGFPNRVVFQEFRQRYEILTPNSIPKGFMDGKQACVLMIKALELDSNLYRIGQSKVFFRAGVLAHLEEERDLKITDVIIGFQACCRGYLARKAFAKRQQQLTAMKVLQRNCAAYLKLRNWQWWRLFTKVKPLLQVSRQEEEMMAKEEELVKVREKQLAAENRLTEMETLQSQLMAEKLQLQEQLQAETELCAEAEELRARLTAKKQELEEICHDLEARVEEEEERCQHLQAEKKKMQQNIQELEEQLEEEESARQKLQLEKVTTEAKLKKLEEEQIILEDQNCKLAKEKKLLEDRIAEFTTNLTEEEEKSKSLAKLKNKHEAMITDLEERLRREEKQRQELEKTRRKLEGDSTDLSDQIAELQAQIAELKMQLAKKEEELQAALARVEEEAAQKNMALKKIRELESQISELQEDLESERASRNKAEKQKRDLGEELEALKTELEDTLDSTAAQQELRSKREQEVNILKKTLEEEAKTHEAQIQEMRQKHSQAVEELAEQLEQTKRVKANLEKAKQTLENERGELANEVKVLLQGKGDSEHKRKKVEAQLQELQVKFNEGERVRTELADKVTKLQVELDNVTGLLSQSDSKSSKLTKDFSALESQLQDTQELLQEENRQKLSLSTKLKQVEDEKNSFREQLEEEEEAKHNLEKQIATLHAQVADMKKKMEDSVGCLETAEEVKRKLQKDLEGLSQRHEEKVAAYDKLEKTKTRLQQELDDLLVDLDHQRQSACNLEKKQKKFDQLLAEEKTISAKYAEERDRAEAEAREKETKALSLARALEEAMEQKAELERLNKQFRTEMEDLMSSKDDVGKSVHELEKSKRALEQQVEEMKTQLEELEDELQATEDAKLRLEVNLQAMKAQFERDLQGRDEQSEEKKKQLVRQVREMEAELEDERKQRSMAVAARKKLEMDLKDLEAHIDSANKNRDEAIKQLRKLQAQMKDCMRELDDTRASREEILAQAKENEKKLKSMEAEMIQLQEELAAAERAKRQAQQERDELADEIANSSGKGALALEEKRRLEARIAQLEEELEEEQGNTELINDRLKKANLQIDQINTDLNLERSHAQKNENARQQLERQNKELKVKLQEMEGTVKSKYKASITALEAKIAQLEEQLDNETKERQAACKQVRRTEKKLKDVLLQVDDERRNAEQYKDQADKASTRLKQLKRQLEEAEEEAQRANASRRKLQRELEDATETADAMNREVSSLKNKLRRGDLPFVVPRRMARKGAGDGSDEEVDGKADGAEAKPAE

Molecular target: non-muscle myosin heavy chain IIA (NMHC IIA), human (human (endogenous in blood neutrophils)) (UniProt P35579)
Assay: co-IP; anti-NMHC IIA antibody cross-linked to resin, lysates of human blood neutrophils after GM-CSF stimulation; immunoblot for RHOH; overnight at 4°C

B1: RHOH, human (protein, UniProt Q15669 1-191)
chain: MLSSIKCVLVGDSAVGKTSLLVRFTSETFPEAYKPTVYENTGVDVFMDGIQISLGLWDTAGNDAFRSIRPLSYQQADVVLMCYSVANHNSFLNLKNKWIGEIRSNLPCTPVLVVATQTDQREMGPHRASCVNAMEGKKLAQDVRAKGYLECSALSNRGVQQVFECAVRTAVNQARRRNRRRLFSINECKIF
  binding: binds
